These are yes or no findings as the source states them, for the method shown. Binding seen in cells or lysates may run through a third protein. Binding can be weak; no strength is given.
How the values were obtained:
Assay in all cases: split reporter; BiFC with NtYFP and CtYFP fragments tested on both Nt and Ct sides of each factor; transient co-expression in N. benthamiana leaves (A. tumefaciens C58, OD600 0.4) with HC-Pro; confocal microscopy at 3 days post-infiltration
DkMYC1 (Diospyros kaki) = target: DkMYC1 (Diospyros kaki)
DkWDR1 (Diospyros kaki) = DkWDR1 (Diospyros kaki) (UniProt V9I0L4)
DkMYB2 (Diospyros kaki) = target: T1, DkMYB2 (Diospyros kaki) (UniProt D0VYJ7)
T1 sequence: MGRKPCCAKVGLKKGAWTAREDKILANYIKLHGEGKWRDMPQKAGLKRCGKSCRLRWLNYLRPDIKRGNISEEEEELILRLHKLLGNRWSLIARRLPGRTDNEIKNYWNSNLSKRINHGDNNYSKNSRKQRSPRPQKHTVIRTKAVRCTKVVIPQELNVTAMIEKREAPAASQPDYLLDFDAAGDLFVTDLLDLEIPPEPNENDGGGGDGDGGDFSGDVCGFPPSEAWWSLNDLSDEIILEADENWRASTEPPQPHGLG

Protein sequences, listed by entry. Tags and fused reporters are not part of them. Lines headed by an entry give the natural chain unless they say otherwise; changes in a name come on top.
UniProt V9I0L4: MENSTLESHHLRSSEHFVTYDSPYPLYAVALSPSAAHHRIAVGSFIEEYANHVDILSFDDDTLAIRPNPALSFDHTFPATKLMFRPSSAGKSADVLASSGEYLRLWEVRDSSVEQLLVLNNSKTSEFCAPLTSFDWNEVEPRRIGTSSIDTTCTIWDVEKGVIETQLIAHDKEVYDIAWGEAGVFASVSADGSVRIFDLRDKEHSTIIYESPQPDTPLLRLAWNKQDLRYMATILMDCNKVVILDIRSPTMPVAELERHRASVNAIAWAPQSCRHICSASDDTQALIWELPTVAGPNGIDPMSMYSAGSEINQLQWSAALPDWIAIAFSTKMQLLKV
UniProt D0VYJ9: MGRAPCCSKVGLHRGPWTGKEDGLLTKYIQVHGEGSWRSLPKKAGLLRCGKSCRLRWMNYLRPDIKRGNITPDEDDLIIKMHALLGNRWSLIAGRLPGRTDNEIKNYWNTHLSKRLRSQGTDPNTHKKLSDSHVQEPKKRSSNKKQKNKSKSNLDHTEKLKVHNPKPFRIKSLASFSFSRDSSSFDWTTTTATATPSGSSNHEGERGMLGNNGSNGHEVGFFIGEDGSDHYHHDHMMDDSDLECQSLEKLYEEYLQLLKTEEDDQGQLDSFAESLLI
UniProt A0A140EFM7: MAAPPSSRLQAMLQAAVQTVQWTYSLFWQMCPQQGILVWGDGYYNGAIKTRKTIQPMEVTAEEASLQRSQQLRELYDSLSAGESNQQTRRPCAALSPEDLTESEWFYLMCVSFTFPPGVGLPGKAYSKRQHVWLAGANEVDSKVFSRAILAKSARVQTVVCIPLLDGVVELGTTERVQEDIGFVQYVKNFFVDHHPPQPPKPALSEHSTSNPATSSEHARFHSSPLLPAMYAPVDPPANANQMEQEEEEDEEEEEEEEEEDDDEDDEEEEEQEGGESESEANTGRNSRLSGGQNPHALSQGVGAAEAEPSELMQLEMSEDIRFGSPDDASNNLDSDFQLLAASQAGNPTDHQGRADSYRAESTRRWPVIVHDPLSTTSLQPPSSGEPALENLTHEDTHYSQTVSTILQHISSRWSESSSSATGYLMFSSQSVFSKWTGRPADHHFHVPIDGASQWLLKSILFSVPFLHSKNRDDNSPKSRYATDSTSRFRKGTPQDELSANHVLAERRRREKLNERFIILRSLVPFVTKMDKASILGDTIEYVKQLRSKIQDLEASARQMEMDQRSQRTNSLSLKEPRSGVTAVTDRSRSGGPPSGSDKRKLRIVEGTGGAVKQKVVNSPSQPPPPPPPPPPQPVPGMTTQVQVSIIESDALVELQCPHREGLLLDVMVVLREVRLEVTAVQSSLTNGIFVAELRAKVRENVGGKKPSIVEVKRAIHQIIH

Row | Substance | binding (DkMYC1 (Diospyros kaki)) | binding (DkWDR1 (Diospyros kaki)) | binding (DkMYB2 (Diospyros kaki))
1 | DkMYB4 (from UniProt D0VYJ9 1-277) | binds | binds | –
2 | DkMYC1 (from UniProt A0A140EFM7) | – | binds | binds
3 | DkWDR1 (from UniProt V9I0L4) | – | – | no binding
